Results deposited as PubChem BioAssay AID602196 (INSERM, 2012)
Screen: 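Modifiers of cisplatin sensitivity in A549 cells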. Cells: human A549 lung cancer cells. Reagents: siRNA pair against human genes. Duration: 48 h transfection before cisplatin; time from cisplatin to read-out not stated. Challenge: cisplatin at a dose killing half of control-siRNA cells; exact dose and duration not given. Measurement: 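Cisplatin cell death as a shift from the 50% death seen with control siRNA; siRNAs toxic or growth-blocking alone scored 0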. Scale: two-siRNA summed score (-2 to +2): higher = both siRNAs protect from cisplatin killing; -2 means both sensitise; mean protection from cisplatin (shift in death) and protection from cisplatin (shift in death), siRNA C and protection from cisplatin (shift in death), siRNA D: higher = protection from cisplatin killing. Call rule: 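siRNAs harmful alone (LDH or WST-1) get 0; others get +1 for less and -1 for more cisplatin killing; genes are active when the two siRNAs give the same sign, summing to ±2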. Calls: active = both siRNAs shift cisplatin killing the same way; inactive = no consistent shift, or siRNA harmful alone.
The whole screen tested about 23,000 reagents; shown is a random part of them. Of all reagents, 455 (2%) are marked active. 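Active includes both protection and sensitisation; some change values fall well beyond the stated -50 to +50 range.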 The numbers tell different reagents against one gene apart. Not given: the amount of reagent.

two-siRNA summed score (-2 to +2) | mean protection from cisplatin (shift in death) (%) | protection from cisplatin (shift in death), siRNA C (%) | protection from cisplatin (shift in death), siRNA D (%) | activity call | target | reagent no.
0 | -4.1 | -4.9 | -3.3 | inactive | CXCR1 (C-X-C motif chemokine receptor 1) | 1
0 | -5.5 | -4.1 | -6.9 | inactive | UPK3B (uroplakin 3B) | 1
0 | 22.8 | 10.3 | 35.3 | inactive | DISC1 (DISC1 scaffold protein) | 1
1 | 16.8 | 7.3 | 26.3 | inactive | DISC1 (DISC1 scaffold protein) | 2
0 | 1.5 | 13.1 | -10.1 | inactive | LOC126075 | 1
0 | -6.8 | -10 | -3.5 | inactive | RABIF (RAB interacting factor) | 1
1 | 19.9 | 15 | 24.7 | inactive | LOC401539 | 1
0 | -2.4 | 5.3 | -10.1 | inactive | CWC22 (CWC22 spliceosome associated protein) | 1
0 | 11.7 | 14 | 9.4 | inactive | LOC400849 | 1
0 | 4.6 | -0.4 | 9.6 | inactive | PGAM5 | 1
-1 | -4.1 | -16.8 | 8.7 | inactive | RAB38 (RAB38, member RAS oncogene family) | 1
0 | 5.1 | -2.2 | 12.4 | inactive | TMEM167A (transmembrane protein 167A) | 1
1 | 16.1 | 9.8 | 22.5 | inactive | LOC442147 | 1
0 | -8.5 | -12.1 | -5 | inactive | KLHL34 (kelch like family member 34) | 1
0 | 2.4 | 6.8 | -2 | inactive | NUDT12 (nudix hydrolase 12) | 1
0 | -1 | 8.5 | -10.4 | inactive | PRSS36 (serine protease 36) | 1
-1 | -1.6 | -13.5 | 10.2 | inactive | ACAT1 (acetyl-CoA acetyltransferase 1) | 1
0 | 0.8 | 7.1 | -5.5 | inactive | HBS1L (HBS1 like translational GTPase) | 1
0 | -20.2 | 9.1 | -49.5 | inactive | GLI1 (GLI family zinc finger 1) | 1
1 | 10.8 | 27.2 | -5.7 | inactive | PIP (prolactin induced protein) | 1
0 | 5.7 | 14.6 | -3.2 | inactive | KIRREL3-AS3 (KIRREL3 antisense RNA 3) | 1
0 | 17.3 | 16.5 | 18.1 | inactive | LILRB4 (leukocyte immunoglobulin like receptor B4) | 1
-1 | -1.2 | 10.1 | -12.4 | inactive | CTNNB1 (catenin beta 1) | 1
-1 | -10.2 | -13.5 | -6.9 | inactive | ADCY3 (adenylate cyclase 3) | 1

Next part; the last 4 above are carried over.
two-siRNA summed score (-2 to +2) | mean protection from cisplatin (shift in death) (%) | protection from cisplatin (shift in death), siRNA C (%) | protection from cisplatin (shift in death), siRNA D (%) | activity call | target | reagent no.
0 | 5.7 | 14.6 | -3.2 | inactive | KIRREL3-AS3 (KIRREL3 antisense RNA 3) | 1
0 | 17.3 | 16.5 | 18.1 | inactive | LILRB4 (leukocyte immunoglobulin like receptor B4) | 1
-1 | -1.2 | 10.1 | -12.4 | inactive | CTNNB1 (catenin beta 1) | 1
-1 | -10.2 | -13.5 | -6.9 | inactive | ADCY3 (adenylate cyclase 3) | 1
0 | 8.3 | 7 | 9.5 | inactive | LOC388270 | 1
0 | 1.1 | -16.7 | 18.8 | inactive | LOC391481 | 1
0 | 2 | -7.9 | 12 | inactive | CPNE9 (copine family member 9) | 1
2 | 23.1 | 25.2 | 21 | active | HAO2 (hydroxyacid oxidase 2) | 1
0 | 2.9 | -0.2 | 5.9 | inactive | XCR1 (X-C motif chemokine receptor 1) | 1
0 | 0.5 | -3.9 | 4.8 | inactive | ANXA7 (annexin A7) | 1
-1 | -9.6 | -25.6 | 6.4 | inactive | TAS2R3 (taste 2 receptor member 3) | 1
0 | 5 | -0.6 | 10.6 | inactive | BAP1 (BRCA1 associated deubiquitinase 1) | 1
0 | -0.5 | -10 | 9 | inactive | NFATC2IP (nuclear factor of activated T cells 2 interacting protein) | 1
0 | -5.7 | -7.8 | -3.6 | inactive | SERPINB7 (serpin family B member 7) | 1
0 | -15.2 | -36.8 | 6.3 | inactive | OTOF (otoferlin) | 1
0 | 0.7 | 4.3 | -2.9 | inactive | UFSP2 (UFM1 specific peptidase 2) | 1
0 | 8.2 | 6.9 | 9.5 | inactive | LCE2D (late cornified envelope 2D) | 1
1 | 17.9 | 25.3 | 10.5 | inactive | LOC390877 (adenylate kinase isoenzyme 1-like) | 1
0 | 8.9 | 1.3 | 16.4 | inactive | LOC196913 | 1
